# Results: the supplement of paper PMC10849652
# By UniProt entry, the sequences of proteins in these tests, tags left out. Where a name states a change or a piece, a line headed by the entry shows the natural chain unless it says otherwise.
# UniProt P29122: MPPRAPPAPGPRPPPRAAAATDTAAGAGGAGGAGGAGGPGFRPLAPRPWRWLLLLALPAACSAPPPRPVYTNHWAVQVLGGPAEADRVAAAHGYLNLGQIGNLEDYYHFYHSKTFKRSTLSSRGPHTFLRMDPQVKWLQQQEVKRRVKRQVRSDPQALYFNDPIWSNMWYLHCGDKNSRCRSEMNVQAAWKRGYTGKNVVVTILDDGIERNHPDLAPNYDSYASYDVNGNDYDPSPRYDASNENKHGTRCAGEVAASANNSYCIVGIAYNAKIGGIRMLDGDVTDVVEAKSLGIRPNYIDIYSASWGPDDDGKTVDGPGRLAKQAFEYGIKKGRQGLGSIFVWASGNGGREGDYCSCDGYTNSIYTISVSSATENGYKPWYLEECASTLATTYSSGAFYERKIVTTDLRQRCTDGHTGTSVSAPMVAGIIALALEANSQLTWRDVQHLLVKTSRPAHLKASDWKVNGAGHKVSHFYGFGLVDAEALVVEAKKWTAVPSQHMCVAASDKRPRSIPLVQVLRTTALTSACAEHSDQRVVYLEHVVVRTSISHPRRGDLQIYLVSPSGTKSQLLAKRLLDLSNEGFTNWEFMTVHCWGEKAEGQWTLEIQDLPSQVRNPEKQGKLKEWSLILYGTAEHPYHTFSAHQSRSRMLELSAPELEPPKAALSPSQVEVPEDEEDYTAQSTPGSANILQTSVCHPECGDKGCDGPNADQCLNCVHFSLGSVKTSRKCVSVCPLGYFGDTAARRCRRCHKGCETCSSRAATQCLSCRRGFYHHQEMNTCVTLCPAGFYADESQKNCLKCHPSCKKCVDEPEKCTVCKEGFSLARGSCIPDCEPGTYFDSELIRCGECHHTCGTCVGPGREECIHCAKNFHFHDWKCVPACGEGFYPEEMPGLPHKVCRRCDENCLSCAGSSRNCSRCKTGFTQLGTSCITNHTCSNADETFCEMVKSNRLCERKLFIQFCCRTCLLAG
# UniProt Q9Y5B6: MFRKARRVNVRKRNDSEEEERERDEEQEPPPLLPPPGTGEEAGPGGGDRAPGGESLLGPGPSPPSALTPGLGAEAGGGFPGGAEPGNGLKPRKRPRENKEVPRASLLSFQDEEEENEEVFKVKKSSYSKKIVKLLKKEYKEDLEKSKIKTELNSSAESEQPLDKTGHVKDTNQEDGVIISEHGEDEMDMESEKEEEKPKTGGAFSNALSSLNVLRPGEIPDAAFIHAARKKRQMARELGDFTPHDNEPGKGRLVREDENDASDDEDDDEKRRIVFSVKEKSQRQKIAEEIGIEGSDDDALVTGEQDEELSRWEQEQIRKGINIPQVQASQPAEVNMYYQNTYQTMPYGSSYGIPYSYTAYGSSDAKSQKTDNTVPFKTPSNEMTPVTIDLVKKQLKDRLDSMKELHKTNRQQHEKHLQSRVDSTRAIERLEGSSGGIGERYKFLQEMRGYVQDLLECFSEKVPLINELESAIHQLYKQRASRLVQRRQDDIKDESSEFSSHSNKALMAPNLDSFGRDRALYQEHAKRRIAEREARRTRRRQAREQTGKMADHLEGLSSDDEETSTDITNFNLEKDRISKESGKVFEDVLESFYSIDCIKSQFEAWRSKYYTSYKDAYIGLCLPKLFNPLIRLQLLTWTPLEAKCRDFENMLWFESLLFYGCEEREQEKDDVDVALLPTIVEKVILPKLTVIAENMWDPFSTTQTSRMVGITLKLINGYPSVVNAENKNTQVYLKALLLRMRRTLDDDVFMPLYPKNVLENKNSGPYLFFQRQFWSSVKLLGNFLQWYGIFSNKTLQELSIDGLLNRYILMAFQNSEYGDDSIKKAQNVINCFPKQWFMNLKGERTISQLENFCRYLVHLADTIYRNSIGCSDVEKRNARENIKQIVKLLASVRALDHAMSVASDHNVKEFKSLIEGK
# UniProt Q9NV79: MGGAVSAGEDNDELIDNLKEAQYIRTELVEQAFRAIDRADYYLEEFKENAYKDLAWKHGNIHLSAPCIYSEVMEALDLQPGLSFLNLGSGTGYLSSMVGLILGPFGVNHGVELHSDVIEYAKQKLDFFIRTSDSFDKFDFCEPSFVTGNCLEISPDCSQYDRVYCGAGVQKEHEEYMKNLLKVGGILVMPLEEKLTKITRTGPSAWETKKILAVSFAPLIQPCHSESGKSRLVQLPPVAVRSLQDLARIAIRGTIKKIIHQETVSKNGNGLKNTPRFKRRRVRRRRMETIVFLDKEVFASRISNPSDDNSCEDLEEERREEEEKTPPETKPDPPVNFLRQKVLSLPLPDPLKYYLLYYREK
# UniProt Q9UBM1: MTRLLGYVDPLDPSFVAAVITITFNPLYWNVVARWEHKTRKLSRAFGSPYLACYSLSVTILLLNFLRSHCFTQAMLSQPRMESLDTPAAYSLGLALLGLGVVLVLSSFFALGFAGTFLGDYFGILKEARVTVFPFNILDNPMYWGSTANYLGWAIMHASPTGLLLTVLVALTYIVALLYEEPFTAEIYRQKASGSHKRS
# UniProt Q86U42: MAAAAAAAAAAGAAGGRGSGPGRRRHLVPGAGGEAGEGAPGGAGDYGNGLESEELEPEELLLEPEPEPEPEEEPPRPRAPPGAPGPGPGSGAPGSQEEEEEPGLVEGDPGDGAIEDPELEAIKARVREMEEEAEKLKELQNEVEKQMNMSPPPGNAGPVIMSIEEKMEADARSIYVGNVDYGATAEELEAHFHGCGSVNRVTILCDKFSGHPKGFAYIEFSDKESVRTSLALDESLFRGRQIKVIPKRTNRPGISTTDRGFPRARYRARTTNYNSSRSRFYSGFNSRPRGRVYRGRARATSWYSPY
# UniProt Q8TEW0: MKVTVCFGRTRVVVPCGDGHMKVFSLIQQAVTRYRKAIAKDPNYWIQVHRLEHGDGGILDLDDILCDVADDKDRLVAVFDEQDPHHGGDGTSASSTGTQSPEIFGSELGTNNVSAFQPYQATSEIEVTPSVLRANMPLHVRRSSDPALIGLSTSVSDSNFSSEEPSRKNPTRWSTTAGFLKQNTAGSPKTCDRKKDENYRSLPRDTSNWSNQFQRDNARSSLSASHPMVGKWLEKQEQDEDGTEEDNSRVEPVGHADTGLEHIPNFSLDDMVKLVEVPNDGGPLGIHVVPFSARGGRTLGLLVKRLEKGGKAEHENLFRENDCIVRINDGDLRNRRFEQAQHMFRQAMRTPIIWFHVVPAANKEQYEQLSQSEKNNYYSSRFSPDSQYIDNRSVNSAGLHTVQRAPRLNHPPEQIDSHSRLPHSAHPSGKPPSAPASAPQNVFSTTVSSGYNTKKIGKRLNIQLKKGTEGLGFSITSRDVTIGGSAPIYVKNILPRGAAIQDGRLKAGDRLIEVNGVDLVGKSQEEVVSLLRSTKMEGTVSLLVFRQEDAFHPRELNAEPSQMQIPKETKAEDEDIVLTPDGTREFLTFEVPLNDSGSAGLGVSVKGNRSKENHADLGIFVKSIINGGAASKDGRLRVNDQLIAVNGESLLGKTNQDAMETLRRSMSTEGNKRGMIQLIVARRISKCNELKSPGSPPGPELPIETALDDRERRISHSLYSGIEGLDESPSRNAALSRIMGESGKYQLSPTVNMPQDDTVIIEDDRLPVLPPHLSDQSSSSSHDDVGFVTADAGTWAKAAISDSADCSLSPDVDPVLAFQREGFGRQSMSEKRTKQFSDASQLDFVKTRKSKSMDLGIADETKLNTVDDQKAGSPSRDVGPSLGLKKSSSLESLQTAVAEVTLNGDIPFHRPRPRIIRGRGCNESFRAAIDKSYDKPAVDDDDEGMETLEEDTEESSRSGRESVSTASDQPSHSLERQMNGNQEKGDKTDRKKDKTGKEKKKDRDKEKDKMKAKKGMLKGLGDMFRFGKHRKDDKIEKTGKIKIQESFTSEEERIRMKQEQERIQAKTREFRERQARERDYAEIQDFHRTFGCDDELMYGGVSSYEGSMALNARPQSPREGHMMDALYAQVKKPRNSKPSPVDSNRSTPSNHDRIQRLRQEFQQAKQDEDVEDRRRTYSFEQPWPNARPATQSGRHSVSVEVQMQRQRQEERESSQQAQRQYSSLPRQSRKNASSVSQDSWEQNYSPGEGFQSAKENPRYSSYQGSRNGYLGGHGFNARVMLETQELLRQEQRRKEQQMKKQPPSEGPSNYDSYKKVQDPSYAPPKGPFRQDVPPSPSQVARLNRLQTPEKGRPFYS
# UniProt Q08174: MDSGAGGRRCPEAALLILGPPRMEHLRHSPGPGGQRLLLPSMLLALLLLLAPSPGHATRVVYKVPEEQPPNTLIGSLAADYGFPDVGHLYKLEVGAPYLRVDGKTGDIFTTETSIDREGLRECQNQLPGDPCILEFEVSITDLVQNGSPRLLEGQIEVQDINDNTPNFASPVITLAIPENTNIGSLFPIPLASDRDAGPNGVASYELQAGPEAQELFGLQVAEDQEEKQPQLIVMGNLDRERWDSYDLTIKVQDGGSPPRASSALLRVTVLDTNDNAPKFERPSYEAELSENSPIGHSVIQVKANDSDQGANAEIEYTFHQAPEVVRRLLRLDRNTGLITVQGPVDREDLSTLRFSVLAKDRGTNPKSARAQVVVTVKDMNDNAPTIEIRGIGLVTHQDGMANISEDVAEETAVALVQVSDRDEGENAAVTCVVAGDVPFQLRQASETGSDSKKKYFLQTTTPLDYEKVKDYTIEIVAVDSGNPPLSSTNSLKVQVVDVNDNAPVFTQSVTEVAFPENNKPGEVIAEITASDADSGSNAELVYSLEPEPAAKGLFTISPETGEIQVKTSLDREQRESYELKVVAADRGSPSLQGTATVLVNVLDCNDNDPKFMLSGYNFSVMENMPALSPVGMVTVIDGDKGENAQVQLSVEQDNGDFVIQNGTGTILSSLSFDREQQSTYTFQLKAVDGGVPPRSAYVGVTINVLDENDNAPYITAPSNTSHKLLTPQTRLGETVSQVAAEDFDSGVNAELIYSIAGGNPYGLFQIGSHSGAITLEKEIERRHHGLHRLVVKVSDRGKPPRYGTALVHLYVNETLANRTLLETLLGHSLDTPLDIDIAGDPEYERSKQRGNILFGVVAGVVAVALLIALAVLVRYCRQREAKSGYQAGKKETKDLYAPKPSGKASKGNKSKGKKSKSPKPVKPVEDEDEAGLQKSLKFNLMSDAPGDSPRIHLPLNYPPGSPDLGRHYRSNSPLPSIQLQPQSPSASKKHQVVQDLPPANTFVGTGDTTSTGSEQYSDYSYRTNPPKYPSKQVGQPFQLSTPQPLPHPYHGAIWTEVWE
# UniProt Q86VP3, whole entry, looked up: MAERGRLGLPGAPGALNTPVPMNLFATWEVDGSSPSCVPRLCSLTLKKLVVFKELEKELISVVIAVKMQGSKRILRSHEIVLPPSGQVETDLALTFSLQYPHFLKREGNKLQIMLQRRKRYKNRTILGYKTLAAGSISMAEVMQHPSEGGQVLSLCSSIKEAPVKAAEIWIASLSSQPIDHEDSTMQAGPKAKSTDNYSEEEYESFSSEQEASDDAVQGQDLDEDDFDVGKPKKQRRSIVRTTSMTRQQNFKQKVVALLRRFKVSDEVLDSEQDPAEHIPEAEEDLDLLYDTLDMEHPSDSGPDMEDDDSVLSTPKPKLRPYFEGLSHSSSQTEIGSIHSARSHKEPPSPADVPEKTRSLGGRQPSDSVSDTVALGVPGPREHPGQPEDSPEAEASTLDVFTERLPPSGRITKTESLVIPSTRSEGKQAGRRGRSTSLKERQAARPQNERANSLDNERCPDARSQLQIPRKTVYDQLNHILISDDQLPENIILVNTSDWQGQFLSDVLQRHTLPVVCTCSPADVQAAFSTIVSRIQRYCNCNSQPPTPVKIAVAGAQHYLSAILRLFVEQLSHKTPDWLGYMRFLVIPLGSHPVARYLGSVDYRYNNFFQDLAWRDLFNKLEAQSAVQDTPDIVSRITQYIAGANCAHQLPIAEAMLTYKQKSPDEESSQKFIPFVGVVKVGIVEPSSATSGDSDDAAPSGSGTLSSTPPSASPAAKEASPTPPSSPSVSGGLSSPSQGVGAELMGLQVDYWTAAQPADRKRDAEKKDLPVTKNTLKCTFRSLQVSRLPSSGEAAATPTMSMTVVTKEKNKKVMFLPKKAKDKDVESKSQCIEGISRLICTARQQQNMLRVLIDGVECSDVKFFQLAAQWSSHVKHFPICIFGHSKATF
# UniProt Q9P0J1: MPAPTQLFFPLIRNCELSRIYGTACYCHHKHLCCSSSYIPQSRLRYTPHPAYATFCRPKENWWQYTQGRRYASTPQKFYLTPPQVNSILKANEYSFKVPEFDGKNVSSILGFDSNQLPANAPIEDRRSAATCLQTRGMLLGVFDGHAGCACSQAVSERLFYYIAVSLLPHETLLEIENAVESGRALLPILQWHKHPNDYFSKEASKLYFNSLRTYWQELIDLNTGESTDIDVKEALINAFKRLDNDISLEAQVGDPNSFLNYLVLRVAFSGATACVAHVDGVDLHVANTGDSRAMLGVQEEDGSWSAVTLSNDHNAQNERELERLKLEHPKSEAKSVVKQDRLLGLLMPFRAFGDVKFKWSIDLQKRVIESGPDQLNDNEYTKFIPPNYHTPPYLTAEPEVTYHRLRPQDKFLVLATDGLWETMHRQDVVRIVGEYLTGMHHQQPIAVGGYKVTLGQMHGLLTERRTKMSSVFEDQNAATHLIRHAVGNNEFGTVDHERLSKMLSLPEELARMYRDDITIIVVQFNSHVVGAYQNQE
# This is one part of the list.
# Experiments:
# Assay in all cases: log2 fold change, soluble protein after heating vs DMSO (PISA); higher = thermal stabilisation; K562 cells, 10 uM, 30 min; active = over 0.2 and 3.5 SD of the protein, either way, in both replicates (recomputed)
# saracatinib = compound: CN1CCN(CCOc2cc(OC3CCOCC3)c3c(Nc4c(Cl)ccc5c4OCO5)ncnc3c2)CC1 [saracatinib]
# Summary of the method: (§1)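 Values are thermal stability changes relative to control samples and are taken from duplicates. They are stated as log2 fold changes. Before quantification by TMTpro 16plex LC-MS/MS with equalised channel sums, K562 cells at 2×10^6 cells/mL were treated with 10 μM compound for 30 min, heated in aliquots for 3 min across 48°C-58°C, pooled, extracted in PBS with 0.5% NP-40 at 4°C, and centrifuged at 21,000xg for 90 min to give the soluble supernatant.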
# rucaparib = compound: CNCc1ccc(-c2[nH]c3cc(F)cc4c3c2CCNC4=O)cc1 [rucaparib]
# Summary of the method: as §1
# [1] = compound: CNc1nc(-c2ccc3c(N)n[nH]c3c2)cc(N2C[C@@H](C(=O)NC3CCCCC3)CC[C@H]2C)n1
# Summary of the method: as §1
# encorafenib = compound: COC(=O)N[C@@H](C)CNc1nccc(-c2cn(C(C)C)nc2-c2cc(Cl)cc(NS(C)(=O)=O)c2F)n1 [encorafenib]
# Summary of the method: as §1
# idasanutlin = compound: COc1cc(C(=O)O)ccc1NC(=O)[C@@H]1N[C@@H](CC(C)(C)C)[C@](C#N)(c2ccc(Cl)cc2F)[C@H]1c1cccc(Cl)c1F [idasanutlin]
# Summary of the method: as §1
# [2] = compound: COc1cc2nc(-c3cc(F)ccc3O)nc(N[C@@H]3CNC[C@H]3C(C)(C)O)c2cc1OC
# Summary of the method: as §1
# lapatinib = compound: CS(=O)(=O)CCNCc1ccc(-c2ccc3ncnc(Nc4ccc(OCc5cccc(F)c5)c(Cl)c4)c3c2)o1 [lapatinib]
# Summary of the method: as §1
# pictilisib = compound: CS(=O)(=O)N1CCN(Cc2cc3nc(-c4cccc5[nH]ncc45)nc(N4CCOCC4)c3s2)CC1 [pictilisib]
# Summary of the method: as §1
# [3] = compound: COC1=CC=C(C=C1)CN2C=CC3=C2C=C(C=C3)C(=O)NO
# Summary of the method: as §1
# alisertib = compound: COc1cc(Nc2ncc3c(n2)-c2ccc(Cl)cc2C(c2c(F)cccc2OC)=NC3)ccc1C(=O)O [alisertib]
# Summary of the method: as §1
# [4] = compound: COc1cccc2cc(-c3nc([C@H]4CC[C@H](C(=O)O)CC4)n4ncnc(N)c34)[nH]c12
# Summary of the method: as §1
# sotrastaurin = compound: CN1CCN(c2nc(C3=C(c4c[nH]c5ccccc45)C(=O)NC3=O)c3ccccc3n2)CC1 [sotrastaurin]
# Summary of the method: as §1
# alvocidib = compound: CN1CC[C@H](c2c(O)cc(O)c3c(=O)cc(-c4ccccc4Cl)oc23)[C@H](O)C1 [alvocidib]
# Summary of the method: as §1
# defactinib = compound: CNC(=O)c1ccc(Nc2ncc(C(F)(F)F)c(NCc3nccnc3N(C)S(C)(=O)=O)n2)cc1 [defactinib]
# Summary of the method: as §1
# [5] = compound: COC(=O)[C@H](CCSC)NC(=O)C1=C(C=C(C=C1)NC[C@H](CS)N)C2=CC=CC=C2
# Summary of the method: as §1
# filanesib = compound: CON(C)C(=O)N1N=C(c2cc(F)ccc2F)S[C@@]1(CCCN)c1ccccc1 [filanesib]
# Summary of the method: as §1
# zotarolimus = compound: CO[C@H]1C[C@@H]2CC[C@@H](C)[C@@](O)(O2)C(=O)C(=O)N2CCCC[C@H]2C(=O)O[C@H]([C@H](C)C[C@@H]2CC[C@H](n3cnnn3)[C@H](OC)C2)CC(=O)[C@H](C)/C=C(\C)[C@@H](O)[C@@H](OC)C(=O)[C@H](C)C[C@H](C)/C=C/C=C/C=C/1C [zotarolimus]
# Summary of the method: as §1
# gefitinib = compound: COc1cc2ncnc(Nc3ccc(F)c(Cl)c3)c2cc1OCCCN1CCOCC1 [gefitinib]
# Summary of the method: as §1
# Tubastatin A = compound: CN1CCc2c(c3ccccc3n2Cc2ccc(C(=O)NO)cc2)C1 [Tubastatin A]
# Summary of the method: as §1
# [6] = compound: CNC(=O)C1=CC=CC=C1NC2=NC(=NC=C2Cl)NC3=C(C=C(C=C3)N4CCOCC4)OC
# Summary of the method: as §1
target,measurement,setting,value
PAICS (UniProt D6RF62),log2 fold change,saracatinib,inactive: 0.001
same,log2 fold change,rucaparib,inactive: 0.061
same,log2 fold change,[1],inactive: -0.225
same,log2 fold change,encorafenib,inactive: -0.177
same,log2 fold change,idasanutlin,inactive: 0.217
same,log2 fold change,[2],inactive: 0.327
same,log2 fold change,lapatinib,inactive: -0.317
same,log2 fold change,pictilisib,inactive: -0.083
PDE3B (UniProt Q13370),log2 fold change,[3],inactive: -0.17
same,log2 fold change,alisertib,inactive: -0.057
same,log2 fold change,[4],inactive: 0.46
PCSK6 isoform 7 (UniProt P29122),log2 fold change,sotrastaurin,inactive: 0.064
same,log2 fold change,alvocidib,inactive: 0.099
same,log2 fold change,defactinib,inactive: 0.06
same,log2 fold change,rucaparib,inactive: 0.044
same,log2 fold change,encorafenib,inactive: 0.414
same,log2 fold change,[5],inactive: 0.05
same,log2 fold change,filanesib,inactive: 0.024
same,log2 fold change,zotarolimus,inactive: -0.163
same,log2 fold change,idasanutlin,inactive: -0.072
same,log2 fold change,alisertib,inactive: -0.125
same,log2 fold change,[2],inactive: 0.165
same,log2 fold change,gefitinib,inactive: 0.016
same,log2 fold change,[4],inactive: 0.131
same,log2 fold change,lapatinib,inactive: -0.131
same,log2 fold change,pictilisib,inactive: 0.227
PAXBP1 (UniProt Q9Y5B6),log2 fold change,Tubastatin A,inactive: 0.014
same,log2 fold change,[6],inactive: -0.122
same,log2 fold change,rucaparib,inactive: -0.049
same,log2 fold change,encorafenib,inactive: 0.151
same,log2 fold change,[3],inactive: 0.085
same,log2 fold change,pictilisib,inactive: -0.209
PCF11 (UniProt O94913),log2 fold change,defactinib,inactive: -0.059
same,log2 fold change,rucaparib,active: -0.995
same,log2 fold change,encorafenib,inactive: -0.06
same,log2 fold change,[5],inactive: 0.095
same,log2 fold change,[3],inactive: -0.169
same,log2 fold change,zotarolimus,inactive: -0.119
same,log2 fold change,idasanutlin,inactive: -0.097
same,log2 fold change,alisertib,inactive: 0.015
same,log2 fold change,[2],inactive: 0.076
same,log2 fold change,[4],inactive: 0.106
same,log2 fold change,lapatinib,inactive: 0.012
same,log2 fold change,pictilisib,inactive: 0.027
PCMTD2 (UniProt Q9NV79),log2 fold change,Tubastatin A,inactive: 0.164
same,log2 fold change,alisertib,inactive: -0.032
same,log2 fold change,gefitinib,inactive: -0.109
same,log2 fold change,[4],inactive: 0.075
PEMT isoform 2 (UniProt Q9UBM1),log2 fold change,Tubastatin A,inactive: -0.106
same,log2 fold change,[6],inactive: 0.003
PABPN1 (UniProt Q86U42),log2 fold change,saracatinib,inactive: 0.132
same,log2 fold change,alvocidib,inactive: 0.224
same,log2 fold change,[1],inactive: -0.071
same,log2 fold change,zotarolimus,inactive: -0.041
same,log2 fold change,alisertib,inactive: -0.055
same,log2 fold change,[4],inactive: 0.022
same,log2 fold change,pictilisib,inactive: 0.212
PAPOLA (UniProt G3XAH6),log2 fold change,gefitinib,inactive: 0.356
PCMTD1 (UniProt Q96MG8),log2 fold change,saracatinib,inactive: -0.269
same,log2 fold change,[1],inactive: 0.272
same,log2 fold change,[3],inactive: -0.091
same,log2 fold change,gefitinib,inactive: 0.189
PCSK9 (UniProt Q8NBP7),log2 fold change,sotrastaurin,inactive: -0.033
same,log2 fold change,alvocidib,inactive: 0.141
same,log2 fold change,Tubastatin A,inactive: 0.113
same,log2 fold change,[6],inactive: 0.023
same,log2 fold change,defactinib,inactive: 0.007
same,log2 fold change,rucaparib,inactive: -0.035
same,log2 fold change,encorafenib,inactive: 0.09
same,log2 fold change,[5],inactive: 0.039
same,log2 fold change,[3],inactive: -0.035
same,log2 fold change,filanesib,inactive: 0.021
same,log2 fold change,zotarolimus,inactive: 0.105
same,log2 fold change,idasanutlin,inactive: 0.112
same,log2 fold change,alisertib,inactive: -0.007
same,log2 fold change,[2],inactive: 0.083
same,log2 fold change,gefitinib,inactive: 0.022
same,log2 fold change,[4],inactive: -0.03
same,log2 fold change,lapatinib,inactive: 0.078
same,log2 fold change,pictilisib,inactive: 0.018
PCGF6 (UniProt Q9BYE7),log2 fold change,saracatinib,inactive: -0.03
same,log2 fold change,[1],inactive: -0.079
PCNX1 (UniProt Q96RV3),log2 fold change,Tubastatin A,inactive: -0.041
same,log2 fold change,defactinib,inactive: 0.027
same,log2 fold change,rucaparib,inactive: -0.123
same,log2 fold change,encorafenib,inactive: 0.085
same,log2 fold change,[5],inactive: -0.039
same,log2 fold change,alisertib,inactive: -0.059
same,log2 fold change,[2],inactive: 0.34
same,log2 fold change,gefitinib,inactive: -0.028
same,log2 fold change,[4],inactive: 0.035
same,log2 fold change,lapatinib,inactive: -0.475
PARD3 (UniProt Q8TEW0),log2 fold change,rucaparib,inactive: 0.168
same,log2 fold change,encorafenib,inactive: -0.092
same,log2 fold change,[2],inactive: -0.05
same,log2 fold change,lapatinib,inactive: 0.134
same,log2 fold change,pictilisib,inactive: -0.123
PCDH1 isoform 2 (UniProt Q08174),log2 fold change,sotrastaurin,inactive: 0.061
same,log2 fold change,Tubastatin A,inactive: -0.007
same,log2 fold change,filanesib,inactive: -0.03
PACSIN3 (UniProt Q9UKS6),log2 fold change,[6],inactive: -0.136
same,log2 fold change,[3],inactive: 0.125
PACS2 isoform 2 (UniProt Q86VP3),log2 fold change,sotrastaurin,inactive: 0.182
same,log2 fold change,filanesib,inactive: -0.225
PDP1 isoform 2 (UniProt Q9P0J1),log2 fold change,sotrastaurin,inactive: -0.077
same,log2 fold change,[3],inactive: 0.079
same,log2 fold change,filanesib,inactive: 0.12
same,log2 fold change,[2],inactive: 0.072
same,log2 fold change,lapatinib,inactive: 0.075

# A second format for some results above.
target | measurement | setting | value
PCMTD1 (UniProt Q96MG8) | log2 fold change | [1] | inactive: 0.272
same | log2 fold change | [3] | inactive: -0.091
same | log2 fold change | gefitinib | inactive: 0.189

# Some of the entries above in a different format.
target | measurement | setting | value
PCSK6 isoform 7 (UniProt P29122) | log2 fold change | idasanutlin | inactive: -0.072
same | log2 fold change | alisertib | inactive: -0.125
same | log2 fold change | [2] | inactive: 0.165
same | log2 fold change | gefitinib | inactive: 0.016
same | log2 fold change | [4] | inactive: 0.131
